# Measurements published in the supplement of paper PMC10032668.
# By UniProt entry, the sequences of proteins in these tests, tags left out.
# CKS2, P33552, UniProt P33552, whole entry: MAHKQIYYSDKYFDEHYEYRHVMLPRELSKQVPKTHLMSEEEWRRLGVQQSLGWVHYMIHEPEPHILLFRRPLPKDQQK
# PPP2R1A, P30153, UniProt P30153, whole entry: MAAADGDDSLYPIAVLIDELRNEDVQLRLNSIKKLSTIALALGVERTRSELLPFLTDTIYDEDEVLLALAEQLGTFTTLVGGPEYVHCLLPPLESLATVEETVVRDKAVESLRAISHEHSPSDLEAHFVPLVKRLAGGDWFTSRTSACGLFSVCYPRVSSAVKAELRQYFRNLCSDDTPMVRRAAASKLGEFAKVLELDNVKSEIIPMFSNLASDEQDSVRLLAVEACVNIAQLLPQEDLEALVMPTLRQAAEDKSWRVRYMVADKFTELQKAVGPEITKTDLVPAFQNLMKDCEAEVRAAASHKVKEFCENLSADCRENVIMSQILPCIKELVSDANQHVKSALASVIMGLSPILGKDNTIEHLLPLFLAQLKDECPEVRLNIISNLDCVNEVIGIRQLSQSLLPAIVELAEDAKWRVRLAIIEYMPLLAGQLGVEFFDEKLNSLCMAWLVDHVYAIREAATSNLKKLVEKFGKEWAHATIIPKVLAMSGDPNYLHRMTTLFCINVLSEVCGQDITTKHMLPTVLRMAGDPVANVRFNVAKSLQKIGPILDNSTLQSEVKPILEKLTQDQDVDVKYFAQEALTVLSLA
# RBBP4, Q09028, UniProt Q09028, whole entry: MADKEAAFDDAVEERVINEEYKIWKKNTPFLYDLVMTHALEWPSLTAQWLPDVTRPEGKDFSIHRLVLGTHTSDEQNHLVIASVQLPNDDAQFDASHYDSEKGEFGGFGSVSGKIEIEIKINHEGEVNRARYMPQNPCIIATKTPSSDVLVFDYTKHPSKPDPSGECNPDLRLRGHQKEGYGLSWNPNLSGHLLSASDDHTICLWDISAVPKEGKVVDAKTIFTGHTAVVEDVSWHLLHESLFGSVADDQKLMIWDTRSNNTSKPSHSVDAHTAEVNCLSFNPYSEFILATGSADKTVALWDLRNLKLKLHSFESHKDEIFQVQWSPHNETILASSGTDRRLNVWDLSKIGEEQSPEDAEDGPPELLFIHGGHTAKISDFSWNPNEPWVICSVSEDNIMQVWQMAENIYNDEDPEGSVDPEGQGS
# SMC2, O95347, UniProt O95347, whole entry: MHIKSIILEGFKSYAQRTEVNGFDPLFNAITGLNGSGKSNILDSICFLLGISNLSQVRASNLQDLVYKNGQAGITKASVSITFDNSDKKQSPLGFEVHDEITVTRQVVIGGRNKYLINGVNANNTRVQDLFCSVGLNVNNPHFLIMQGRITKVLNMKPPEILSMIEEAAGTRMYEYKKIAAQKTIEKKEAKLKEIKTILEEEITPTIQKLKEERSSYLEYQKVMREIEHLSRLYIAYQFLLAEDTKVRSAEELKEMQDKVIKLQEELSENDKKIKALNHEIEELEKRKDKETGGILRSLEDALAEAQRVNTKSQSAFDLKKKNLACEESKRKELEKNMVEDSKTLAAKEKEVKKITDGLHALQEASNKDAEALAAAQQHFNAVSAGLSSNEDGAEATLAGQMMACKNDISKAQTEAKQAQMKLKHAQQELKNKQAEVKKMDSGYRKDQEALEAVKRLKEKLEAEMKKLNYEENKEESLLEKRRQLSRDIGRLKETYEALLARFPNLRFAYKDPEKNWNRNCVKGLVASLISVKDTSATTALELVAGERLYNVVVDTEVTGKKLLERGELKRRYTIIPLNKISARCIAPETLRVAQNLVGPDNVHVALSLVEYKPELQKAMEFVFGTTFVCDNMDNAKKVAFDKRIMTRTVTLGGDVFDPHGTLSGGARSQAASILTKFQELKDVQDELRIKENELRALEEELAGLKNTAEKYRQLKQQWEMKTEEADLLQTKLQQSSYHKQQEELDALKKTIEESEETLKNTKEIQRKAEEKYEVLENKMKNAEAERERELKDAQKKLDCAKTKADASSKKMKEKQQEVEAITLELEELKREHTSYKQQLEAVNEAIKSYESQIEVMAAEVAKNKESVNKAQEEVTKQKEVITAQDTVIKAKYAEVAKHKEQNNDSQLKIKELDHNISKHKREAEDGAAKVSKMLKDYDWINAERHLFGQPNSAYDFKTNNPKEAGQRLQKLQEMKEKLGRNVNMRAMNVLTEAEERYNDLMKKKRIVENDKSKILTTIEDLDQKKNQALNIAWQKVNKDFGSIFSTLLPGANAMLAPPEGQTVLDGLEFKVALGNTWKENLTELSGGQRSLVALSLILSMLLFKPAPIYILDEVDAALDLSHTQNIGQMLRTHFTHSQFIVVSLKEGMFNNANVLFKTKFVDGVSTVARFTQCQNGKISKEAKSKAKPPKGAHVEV
# SP1, P08047, UniProt P08047, whole entry: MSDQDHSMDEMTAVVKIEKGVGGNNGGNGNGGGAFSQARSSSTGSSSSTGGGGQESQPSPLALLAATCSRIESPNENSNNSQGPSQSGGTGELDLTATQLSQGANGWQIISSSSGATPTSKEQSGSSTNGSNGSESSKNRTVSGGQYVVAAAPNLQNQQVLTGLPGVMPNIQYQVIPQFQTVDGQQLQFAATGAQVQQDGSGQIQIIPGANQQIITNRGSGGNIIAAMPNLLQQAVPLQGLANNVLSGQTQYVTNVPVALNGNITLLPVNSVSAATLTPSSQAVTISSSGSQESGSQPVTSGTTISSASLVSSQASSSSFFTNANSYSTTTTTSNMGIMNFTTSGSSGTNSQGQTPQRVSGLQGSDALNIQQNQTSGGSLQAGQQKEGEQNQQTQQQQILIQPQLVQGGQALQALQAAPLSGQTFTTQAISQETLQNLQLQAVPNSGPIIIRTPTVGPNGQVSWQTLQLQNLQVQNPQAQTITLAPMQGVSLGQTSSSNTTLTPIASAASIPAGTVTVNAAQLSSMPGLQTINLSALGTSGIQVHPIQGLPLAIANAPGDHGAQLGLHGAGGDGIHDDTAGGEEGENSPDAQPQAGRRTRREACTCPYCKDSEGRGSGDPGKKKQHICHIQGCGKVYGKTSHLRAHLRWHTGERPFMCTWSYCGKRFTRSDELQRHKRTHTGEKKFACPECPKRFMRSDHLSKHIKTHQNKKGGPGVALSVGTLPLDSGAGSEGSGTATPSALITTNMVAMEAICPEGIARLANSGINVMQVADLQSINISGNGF
# EIF2S1, P05198, UniProt P05198, whole entry: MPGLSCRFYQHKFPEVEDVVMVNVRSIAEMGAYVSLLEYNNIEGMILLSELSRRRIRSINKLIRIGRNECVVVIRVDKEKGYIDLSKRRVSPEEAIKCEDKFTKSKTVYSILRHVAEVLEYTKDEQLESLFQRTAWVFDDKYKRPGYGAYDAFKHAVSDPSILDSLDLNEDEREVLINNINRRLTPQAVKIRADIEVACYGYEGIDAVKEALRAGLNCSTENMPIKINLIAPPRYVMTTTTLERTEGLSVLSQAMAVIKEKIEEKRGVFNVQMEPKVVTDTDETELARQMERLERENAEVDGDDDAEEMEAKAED
# EP300, Q09472, UniProt Q09472, whole entry: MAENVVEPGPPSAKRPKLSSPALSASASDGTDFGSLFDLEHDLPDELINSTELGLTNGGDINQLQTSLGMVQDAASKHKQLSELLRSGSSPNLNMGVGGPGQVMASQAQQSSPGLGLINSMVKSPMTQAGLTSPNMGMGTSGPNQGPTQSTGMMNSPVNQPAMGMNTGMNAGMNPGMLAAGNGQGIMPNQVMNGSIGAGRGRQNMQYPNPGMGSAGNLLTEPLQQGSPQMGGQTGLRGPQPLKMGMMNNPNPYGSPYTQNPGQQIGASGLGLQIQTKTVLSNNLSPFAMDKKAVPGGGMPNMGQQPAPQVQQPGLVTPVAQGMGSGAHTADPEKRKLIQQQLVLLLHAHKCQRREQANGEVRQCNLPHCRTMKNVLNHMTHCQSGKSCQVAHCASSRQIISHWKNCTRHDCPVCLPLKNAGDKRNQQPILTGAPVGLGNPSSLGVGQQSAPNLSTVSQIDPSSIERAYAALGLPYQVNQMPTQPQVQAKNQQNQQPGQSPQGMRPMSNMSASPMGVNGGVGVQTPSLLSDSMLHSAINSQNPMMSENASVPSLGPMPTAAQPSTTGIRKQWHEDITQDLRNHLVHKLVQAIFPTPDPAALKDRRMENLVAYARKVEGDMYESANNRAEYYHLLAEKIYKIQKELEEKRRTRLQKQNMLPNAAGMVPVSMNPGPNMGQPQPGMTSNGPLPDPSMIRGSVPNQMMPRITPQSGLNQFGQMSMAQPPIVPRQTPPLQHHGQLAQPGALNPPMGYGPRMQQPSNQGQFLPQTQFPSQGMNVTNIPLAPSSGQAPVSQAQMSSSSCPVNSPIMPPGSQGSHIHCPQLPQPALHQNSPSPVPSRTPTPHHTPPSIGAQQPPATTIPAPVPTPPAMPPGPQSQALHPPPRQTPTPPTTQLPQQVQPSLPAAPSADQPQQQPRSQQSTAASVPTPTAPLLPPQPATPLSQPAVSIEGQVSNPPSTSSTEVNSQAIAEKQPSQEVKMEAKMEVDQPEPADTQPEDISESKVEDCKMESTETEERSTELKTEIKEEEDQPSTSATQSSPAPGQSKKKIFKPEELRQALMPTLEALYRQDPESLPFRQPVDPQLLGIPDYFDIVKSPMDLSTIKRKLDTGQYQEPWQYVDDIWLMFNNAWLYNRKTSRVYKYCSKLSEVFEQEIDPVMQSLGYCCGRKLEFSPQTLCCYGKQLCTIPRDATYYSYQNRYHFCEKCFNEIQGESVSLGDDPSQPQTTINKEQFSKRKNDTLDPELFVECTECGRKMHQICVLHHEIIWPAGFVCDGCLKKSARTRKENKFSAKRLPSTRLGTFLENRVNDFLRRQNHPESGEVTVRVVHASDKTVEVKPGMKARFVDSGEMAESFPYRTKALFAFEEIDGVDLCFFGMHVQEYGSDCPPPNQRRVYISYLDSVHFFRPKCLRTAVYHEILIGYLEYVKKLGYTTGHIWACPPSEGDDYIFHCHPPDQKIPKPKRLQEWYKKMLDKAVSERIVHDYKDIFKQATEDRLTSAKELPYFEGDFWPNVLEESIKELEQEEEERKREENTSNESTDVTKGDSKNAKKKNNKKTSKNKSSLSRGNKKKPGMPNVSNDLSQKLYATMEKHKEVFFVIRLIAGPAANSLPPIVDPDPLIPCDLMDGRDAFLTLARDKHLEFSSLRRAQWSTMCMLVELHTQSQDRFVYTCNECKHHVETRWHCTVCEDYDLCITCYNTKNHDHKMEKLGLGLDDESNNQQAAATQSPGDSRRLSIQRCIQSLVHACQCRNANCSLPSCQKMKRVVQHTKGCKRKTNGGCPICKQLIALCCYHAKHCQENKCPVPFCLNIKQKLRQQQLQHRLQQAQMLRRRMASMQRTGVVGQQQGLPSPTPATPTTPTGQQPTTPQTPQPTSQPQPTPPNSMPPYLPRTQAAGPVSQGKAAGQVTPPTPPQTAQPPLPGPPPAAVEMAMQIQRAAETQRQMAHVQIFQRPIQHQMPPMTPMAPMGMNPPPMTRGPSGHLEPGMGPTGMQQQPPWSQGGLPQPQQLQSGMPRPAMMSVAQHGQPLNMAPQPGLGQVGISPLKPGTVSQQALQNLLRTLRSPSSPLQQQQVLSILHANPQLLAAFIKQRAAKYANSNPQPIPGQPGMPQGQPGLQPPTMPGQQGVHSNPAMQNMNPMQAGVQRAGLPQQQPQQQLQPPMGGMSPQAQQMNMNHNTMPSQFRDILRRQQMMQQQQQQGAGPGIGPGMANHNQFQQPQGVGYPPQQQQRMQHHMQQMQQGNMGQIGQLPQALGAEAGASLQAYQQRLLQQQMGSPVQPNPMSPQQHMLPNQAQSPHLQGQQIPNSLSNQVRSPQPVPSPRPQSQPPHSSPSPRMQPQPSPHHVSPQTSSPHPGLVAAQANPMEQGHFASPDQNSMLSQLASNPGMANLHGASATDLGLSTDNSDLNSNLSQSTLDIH
# NDUFS7, O75251, UniProt O75251, whole entry: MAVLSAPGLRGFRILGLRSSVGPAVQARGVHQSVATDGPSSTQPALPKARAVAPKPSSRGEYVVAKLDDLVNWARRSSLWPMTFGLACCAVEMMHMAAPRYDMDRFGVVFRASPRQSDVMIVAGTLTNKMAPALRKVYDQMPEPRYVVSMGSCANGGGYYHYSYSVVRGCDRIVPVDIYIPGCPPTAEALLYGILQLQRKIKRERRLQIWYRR
# PSMC6, P62333, UniProt P62333, whole entry: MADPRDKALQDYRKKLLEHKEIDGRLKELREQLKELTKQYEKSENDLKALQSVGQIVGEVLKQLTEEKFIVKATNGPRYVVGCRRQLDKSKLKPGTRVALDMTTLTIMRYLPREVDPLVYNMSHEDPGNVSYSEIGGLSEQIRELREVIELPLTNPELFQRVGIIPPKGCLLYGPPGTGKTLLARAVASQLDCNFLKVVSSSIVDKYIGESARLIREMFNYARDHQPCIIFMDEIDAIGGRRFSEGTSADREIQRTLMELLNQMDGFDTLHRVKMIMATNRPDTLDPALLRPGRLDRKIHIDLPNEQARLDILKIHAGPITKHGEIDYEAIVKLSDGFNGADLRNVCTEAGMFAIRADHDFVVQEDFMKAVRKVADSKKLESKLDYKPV
# This is one part of the list. The list holds hits alone, and they repeat only in part.
# Key:
# Test in all cases: PRISMA enrichment of interactor (LFQ) in peptide spot vs all other peptide spots (log2 fold change); higher = stronger / more specific binding of the interactor to the peptide
# ALDH2, P05091 = biological target: ALDH2, P05091
# Experimental: (§1)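 PRISMA: 15-aa overlapping tiles (offset 8 aa) of 60 microproteins, plus SOS1/GLUT1 control peptides, were spot-synthesized on cellulose membranes in triplicate. Membranes were incubated with benzonase-treated HEK293T lysate, and bound proteins were identified by LC-MS/MS with LFQ. Enrichment is the log2 fold change of each protein in one spot versus all other spots. Only interactors passing the significance cutoff are listed.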
# ARF5, P84085 = biological target: ARF5, P84085
# Experimental: as §1
# ATP5F1D, P30049 = biological target: ATP5F1D, P30049
# Experimental: as §1
# BOLA3, Q53S33 = biological target: BOLA3, Q53S33
# Experimental: as §1
# CARM1, Q86X55 = biological target: CARM1, Q86X55
# Experimental: as §1
# CDC45, O75419 = biological target: CDC45, O75419
# Experimental: as §1
# CIAPIN1, Q6FI81 = biological target: CIAPIN1, Q6FI81
# Experimental: as §1
# CKAP4, Q07065 = biological target: CKAP4, Q07065
# Experimental: as §1
# CKS2, P33552 = biological target: CKS2, P33552
# Experimental: as §1
# CREB1, P16220 = biological target: CREB1, P16220
# Experimental: as §1
# CRNKL1, Q9BZJ0 = biological target: CRNKL1, Q9BZJ0
# Experimental: as §1
# DHX29, Q7Z478 = biological target: DHX29, Q7Z478
# Experimental: as §1
# DNAJB11, Q9UBS4 = biological target: DNAJB11, Q9UBS4
# Experimental: as §1
# ELP1, O95163 = biological target: ELP1, O95163
# Experimental: as §1
# FAM168A, Q92567 = biological target: FAM168A, Q92567
# Experimental: as §1
# FAM98A, Q8NCA5 = biological target: FAM98A, Q8NCA5
# Experimental: as §1
# GCLM, P48507 = biological target: GCLM, P48507
# Experimental: as §1
# HMMR, O75330 = biological target: HMMR, O75330
# Experimental: as §1
# HSPA4, P34932 = biological target: HSPA4, P34932
# Experimental: as §1
# HSPH1, Q92598 = biological target: HSPH1, Q92598
# Experimental: as §1
# LETM1, O95202 = biological target: LETM1, O95202
# Experimental: as §1
# MBNL1, Q9NR56 = biological target: MBNL1, Q9NR56
# Experimental: as §1
# MCM10, Q7L590 = biological target: MCM10, Q7L590
# Experimental: as §1
# MRPL54, Q6P161 = biological target: MRPL54, Q6P161
# Experimental: as §1
# NFX1, Q12986 = biological target: NFX1, Q12986
# Experimental: as §1
# NOP56, O00567 = biological target: NOP56, O00567
# Experimental: as §1
# POU2F1, P14859 = biological target: POU2F1, P14859
# Experimental: as §1
# PPP2R1A, P30153 = biological target: PPP2R1A, P30153
# Experimental: as §1
# PRDX4, Q13162 = biological target: PRDX4, Q13162
# Experimental: as §1
# PRPF31, Q8WWY3 = biological target: PRPF31, Q8WWY3
# Experimental: as §1
# QRICH1, Q2TAL8 = biological target: QRICH1, Q2TAL8
# Experimental: as §1
# RBBP4, Q09028 = biological target: RBBP4, Q09028
# Experimental: as §1
# RBM26, Q5T8P6 = biological target: RBM26, Q5T8P6
# Experimental: as §1
# RNF2, Q99496 = biological target: RNF2, Q99496
# Experimental: as §1
# RPRD1A, Q96P16 = biological target: RPRD1A, Q96P16
# Experimental: as §1
# RRP15, Q9Y3B9 = biological target: RRP15, Q9Y3B9
# Experimental: as §1
# SIRT1, Q96EB6 = biological target: SIRT1, Q96EB6
# Experimental: as §1
# SMARCC1, Q92922 = biological target: SMARCC1, Q92922
# Experimental: as §1
# SMC2, O95347 = biological target: SMC2, O95347
# Experimental: as §1
# SP1, P08047 = biological target: SP1, P08047
# Experimental: as §1
# TIAL1, Q01085 = biological target: TIAL1, Q01085
# Experimental: as §1
# YTHDF3, Q7Z739 = biological target: YTHDF3, Q7Z739
# Experimental: as §1
# ZC2HC1A, Q96GY0 = biological target: ZC2HC1A, Q96GY0
# Experimental: as §1
# AKAP8L, Q9ULX6 = biological target: AKAP8L, Q9ULX6
# Experimental: as §1
# BCAP31, P51572 = biological target: BCAP31, P51572
# Experimental: as §1
# CENPV, Q7Z7K6 = biological target: CENPV, Q7Z7K6
# Experimental: as §1
# CEP290, O15078 = biological target: CEP290, O15078
# Experimental: as §1
# DDX1, Q92499 = biological target: DDX1, Q92499
# Experimental: as §1
# DHX30, Q7L2E3 = biological target: DHX30, Q7L2E3
# Experimental: as §1
# EARS2, Q5JPH6 = biological target: EARS2, Q5JPH6
# Experimental: as §1
# ECI2, O75521 = biological target: ECI2, O75521
# Experimental: as §1
# EIF2S1, P05198 = biological target: EIF2S1, P05198
# Experimental: as §1
# EP300, Q09472 = biological target: EP300, Q09472
# Experimental: as §1
# FBXO3, Q9UK99 = biological target: FBXO3, Q9UK99
# Experimental: as §1
# MPP1, Q00013 = biological target: MPP1, Q00013
# Experimental: as §1
# MRPS35, P82673 = biological target: MRPS35, P82673
# Experimental: as §1
# NDUFS7, O75251 = biological target: NDUFS7, O75251
# Experimental: as §1
# NF1, P21359 = biological target: NF1, P21359
# Experimental: as §1
# NKAP, Q8N5F7 = biological target: NKAP, Q8N5F7
# Experimental: as §1
# NUP160, Q12769 = biological target: NUP160, Q12769
# Experimental: as §1
# [1] = substrate: PC, P11498
# Experimental: as §1
# PSMA3, P25788 = biological target: PSMA3, P25788
# Experimental: as §1
# PSMC6, P62333 = biological target: PSMC6, P62333
# Experimental: as §1
# PTRH2, Q9Y3E5 = biological target: PTRH2, Q9Y3E5
# Experimental: as §1
# PWP1, Q13610 = biological target: PWP1, Q13610
# Experimental: as §1
# ROCK1, Q13464 = biological target: ROCK1, Q13464
# Experimental: as §1
# [2] = substrate: SON, P18583
# Experimental: as §1
# SRRM2, Q9UQ35 = biological target: SRRM2, Q9UQ35
# Experimental: as §1
# TFAM, Q00059 = biological target: TFAM, Q00059
# Experimental: as §1
# TMEM214, Q6NUQ4 = biological target: TMEM214, Q6NUQ4
# Experimental: as §1
# TPX2, Q9ULW0 = biological target: TPX2, Q9ULW0
# Experimental: as §1
binder,measurement,setting,value
QMQSAFQNVFVLHMT [RP11-432J24.5_2],PRISMA enrichment of interactor (log2),"ALDH2, P05091",4.2
same,PRISMA enrichment of interactor (log2),"ARF5, P84085",4.15
same,PRISMA enrichment of interactor (log2),"ATP5F1D, P30049",4.83
same,PRISMA enrichment of interactor (log2),"BOLA3, Q53S33",4.04
same,PRISMA enrichment of interactor (log2),"CARM1, Q86X55",4.11
same,PRISMA enrichment of interactor (log2),"CDC45, O75419",4.3
same,PRISMA enrichment of interactor (log2),"CIAPIN1, Q6FI81",6.12
same,PRISMA enrichment of interactor (log2),"CKAP4, Q07065",6.12
same,PRISMA enrichment of interactor (log2),"CKS2, P33552",4.59
same,PRISMA enrichment of interactor (log2),"CREB1, P16220",4.43
same,PRISMA enrichment of interactor (log2),"CRNKL1, Q9BZJ0",4.21
same,PRISMA enrichment of interactor (log2),"DHX29, Q7Z478",5.87
same,PRISMA enrichment of interactor (log2),"DNAJB11, Q9UBS4",4.54
same,PRISMA enrichment of interactor (log2),"ELP1, O95163",3.99
same,PRISMA enrichment of interactor (log2),"FAM168A, Q92567",4.89
same,PRISMA enrichment of interactor (log2),"FAM98A, Q8NCA5",5.15
same,PRISMA enrichment of interactor (log2),"GCLM, P48507",4.4
same,PRISMA enrichment of interactor (log2),"HMMR, O75330",5.02
same,PRISMA enrichment of interactor (log2),"HSPA4, P34932",10.6
same,PRISMA enrichment of interactor (log2),"HSPH1, Q92598",6.01
same,PRISMA enrichment of interactor (log2),"LETM1, O95202",6.2
same,PRISMA enrichment of interactor (log2),"MBNL1, Q9NR56",4.07
same,PRISMA enrichment of interactor (log2),"MCM10, Q7L590",4.59
same,PRISMA enrichment of interactor (log2),"MRPL54, Q6P161",5.15
same,PRISMA enrichment of interactor (log2),"NFX1, Q12986",6.02
same,PRISMA enrichment of interactor (log2),"NOP56, O00567",4.93
same,PRISMA enrichment of interactor (log2),"POU2F1, P14859",4.54
same,PRISMA enrichment of interactor (log2),"PPP2R1A, P30153",5.89
same,PRISMA enrichment of interactor (log2),"PRDX4, Q13162",5.89
same,PRISMA enrichment of interactor (log2),"PRPF31, Q8WWY3",4.75
same,PRISMA enrichment of interactor (log2),"QRICH1, Q2TAL8",6.38
same,PRISMA enrichment of interactor (log2),"RBBP4, Q09028",4.56
same,PRISMA enrichment of interactor (log2),"RBM26, Q5T8P6",4.41
same,PRISMA enrichment of interactor (log2),"RNF2, Q99496",4.5
same,PRISMA enrichment of interactor (log2),"RPRD1A, Q96P16",5.15
same,PRISMA enrichment of interactor (log2),"RRP15, Q9Y3B9",4.49
same,PRISMA enrichment of interactor (log2),"SIRT1, Q96EB6",4.66
same,PRISMA enrichment of interactor (log2),"SMARCC1, Q92922",7.77
same,PRISMA enrichment of interactor (log2),"SMC2, O95347",4.52
same,PRISMA enrichment of interactor (log2),"SP1, P08047",5.29
same,PRISMA enrichment of interactor (log2),"TIAL1, Q01085",4.81
same,PRISMA enrichment of interactor (log2),"YTHDF3, Q7Z739",4.77
same,PRISMA enrichment of interactor (log2),"ZC2HC1A, Q96GY0",8.01
PWAPHSPPQVLRMAS [C5orf56],PRISMA enrichment of interactor (log2),"AKAP8L, Q9ULX6",5.65
same,PRISMA enrichment of interactor (log2),"BCAP31, P51572",5.05
same,PRISMA enrichment of interactor (log2),"CENPV, Q7Z7K6",4.27
same,PRISMA enrichment of interactor (log2),"CEP290, O15078",6.19
same,PRISMA enrichment of interactor (log2),"DDX1, Q92499",6.72
same,PRISMA enrichment of interactor (log2),"DHX30, Q7L2E3",6.12
same,PRISMA enrichment of interactor (log2),"EARS2, Q5JPH6",11
same,PRISMA enrichment of interactor (log2),"ECI2, O75521",4.47
same,PRISMA enrichment of interactor (log2),"EIF2S1, P05198",5.56
same,PRISMA enrichment of interactor (log2),"EP300, Q09472",4.32
same,PRISMA enrichment of interactor (log2),"FBXO3, Q9UK99",4.05
same,PRISMA enrichment of interactor (log2),"MPP1, Q00013",4.72
same,PRISMA enrichment of interactor (log2),"MRPS35, P82673",5.17
same,PRISMA enrichment of interactor (log2),"NDUFS7, O75251",4.51
same,PRISMA enrichment of interactor (log2),"NF1, P21359",3.92
same,PRISMA enrichment of interactor (log2),"NKAP, Q8N5F7",4.83
same,PRISMA enrichment of interactor (log2),"NUP160, Q12769",4.62
same,PRISMA enrichment of interactor (log2),[1],6.31
same,PRISMA enrichment of interactor (log2),"PSMA3, P25788",4.24
same,PRISMA enrichment of interactor (log2),"PSMC6, P62333",6.78
same,PRISMA enrichment of interactor (log2),"PTRH2, Q9Y3E5",4.56
same,PRISMA enrichment of interactor (log2),"PWP1, Q13610",4.39
same,PRISMA enrichment of interactor (log2),"ROCK1, Q13464",5.22
same,PRISMA enrichment of interactor (log2),[2],4.39
same,PRISMA enrichment of interactor (log2),"SRRM2, Q9UQ35",4.51
same,PRISMA enrichment of interactor (log2),"TFAM, Q00059",5.21
same,PRISMA enrichment of interactor (log2),"TMEM214, Q6NUQ4",4.34
same,PRISMA enrichment of interactor (log2),"TPX2, Q9ULW0",4.52

# Exported bar-delimited: part of the list above.
binder | measurement | setting | value
QMQSAFQNVFVLHMT [RP11-432J24.5_2] | PRISMA enrichment of interactor (log2) | RNF2, Q99496 | 4.5
same | PRISMA enrichment of interactor (log2) | RPRD1A, Q96P16 | 5.15
same | PRISMA enrichment of interactor (log2) | RRP15, Q9Y3B9 | 4.49
same | PRISMA enrichment of interactor (log2) | SIRT1, Q96EB6 | 4.66
same | PRISMA enrichment of interactor (log2) | SMARCC1, Q92922 | 7.77
